Data as given in PubChem BioAssay AID1259405 (NCATS, 2018).

- Purpose: 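Knock-downs that lift recombinant protein yield in hamster ovary cells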 (primary screen)
- Cell system: Chinese hamster CHO-K1 ovary cells with stable secreted eGFP expression
- Reagent: single siRNA against mouse genes, 0.8 pmol siRNA per well (2 µl of 400 nM stock)
- Timing: 3 days
- Measured: 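Per-well intracellular GFP measured by laser scanning cytometry, plus viability from ATP luminescence, each relative to plate median of non-targeting control wells, in %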
- Reading the numbers: GFP, % of control: higher = more GFP per well, higher productivity; viability (ATP), % of control: higher = more viable cells (more ATP)
- Hit rule: 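Called active when intracellular GFP, relative to negative control, is at or above 120%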
In all, the deposit lists about 50,000 reagents; shown is a part drawn at random. Over the whole deposit, about 4,000 (8%) were called active. 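Mouse siRNA library applied to hamster cells; one well for each siRNA.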 A number with no mark means an inactive call. The numbers tell different reagents against one gene apart.

gene symbol	reagent no.	GFP, % of control	viability (ATP), % of control
Rnf208 (GeneID 68846)	1	87.1	94.5
Rnf208 (GeneID 68846)	2	51	48.5
Rnf208 (GeneID 68846)	3	81.2	62.2
Svep1 (GeneID 64817)	1	112	65.1
Svep1 (GeneID 64817)	2	75.2	36.9
Svep1 (GeneID 64817)	3	74.6	60.8
She (GeneID 214547)	1	48.4	32
She (GeneID 214547)	2	38.7	47.5
She (GeneID 214547)	3	77.4	102
Elapor2 (GeneID 231014)	1	67.5	75.5
Elapor2 (GeneID 231014)	2	80.5	67.2
Elapor2 (GeneID 231014)	3	86.1	108
Tssk5 (GeneID 73542)	1	57	92.1
Tssk5 (GeneID 73542)	2	58.9	68.7
Tssk5 (GeneID 73542)	3	94.3	90.8
Zbtb49 (GeneID 75079)	1	45.5	48.6
Zbtb49 (GeneID 75079)	2	77.3	65.9
Zbtb49 (GeneID 75079)	3	79.8	100
Mrpl46 (GeneID 67308)	1	87.8	71.8
Mrpl46 (GeneID 67308)	2	76.1	66.7
Mrpl46 (GeneID 67308)	3	90.7	55.7
Klf11 (GeneID 194655)	1	72.2	89.9
Klf11 (GeneID 194655)	2	61.5	65.5
Klf11 (GeneID 194655)	3	56	108
Vps35l (GeneID 71517)	1	101	71
Vps35l (GeneID 71517)	2	78.1	78.3
Vps35l (GeneID 71517)	3	76.1	101
Fcgrt (GeneID 14132)	1	139 (active)	115
Fcgrt (GeneID 14132)	2	136 (active)	80.3
Fcgrt (GeneID 14132)	3	42.7	47.4

Looked up above.
Entry for Elapor2 (GeneID 231014) #2 under “viability (ATP), % of control”: 67.2
Value of Zbtb49 (GeneID 75079) #1 in “GFP, % of control”: 45.5
Result of Vps35l (GeneID 71517) #3 under “GFP, % of control”: 76.1
Entry for Tssk5 (GeneID 73542) #1 under “GFP, % of control”: 57

Next records follow.
gene symbol	reagent no.	GFP, % of control	viability (ATP), % of control
Pou1f1 (GeneID 18736)	1	72.9	72.7
Pou1f1 (GeneID 18736)	2	91.7	84.3
Pou1f1 (GeneID 18736)	3	55.2	72.1
Rabl3 (GeneID 67657)	1	106	80
Rabl3 (GeneID 67657)	2	72.9	52.8
Rabl3 (GeneID 67657)	3	50.7	70.9
Nemf (GeneID 66244)	1	51.3	76.7
Nemf (GeneID 66244)	2	77.2	84.7
Nemf (GeneID 66244)	3	56.4	62.7
Sesn2 (GeneID 230784)	1	127 (active)	77.8
Sesn2 (GeneID 230784)	2	71	79.5
Sesn2 (GeneID 230784)	3	44.5	61.7
Srpra (GeneID 67398)	1	110	80.9
Srpra (GeneID 67398)	2	84.4	82.5
Srpra (GeneID 67398)	3	55.2	52
Pde12 (GeneID 211948)	1	64.6	88.1
Pde12 (GeneID 211948)	2	85.5	62.3
Pde12 (GeneID 211948)	3	89.6	84.4
Hkdc1 (GeneID 216019)	1	60.3	54.3
Rhbg (GeneID 58176)	1	93.5	85
Rhbg (GeneID 58176)	2	54.1	68.1
Rhbg (GeneID 58176)	3	90.8	57.5
Slc12a8 (GeneID 171286)	1	85.2	97.5
Slc12a8 (GeneID 171286)	2	47.1	61.5
Slc12a8 (GeneID 171286)	3	128 (active)	67.9
Pja1 (GeneID 18744)	1	129 (active)	86.8
Pja1 (GeneID 18744)	2	70.1	72.9
Pja1 (GeneID 18744)	3	88.7	89.5
Gfra2 (GeneID 14586)	1	71.2	107
Gfra2 (GeneID 14586)	2	120 (active)	57.6
Lrtm1 (GeneID 319476)	1	100	93
Lrtm1 (GeneID 319476)	2	75.5	80.2
Lrtm1 (GeneID 319476)	3	101	94.2
Mcph1 (GeneID 244329)	1	62	80.9
Mcph1 (GeneID 244329)	2	129 (active)	94.6
Mcph1 (GeneID 244329)	3	93.4	62.3
Gstt1 (GeneID 14871)	1	88.6	115
Gstt1 (GeneID 14871)	2	67.7	82.8
Gstt1 (GeneID 14871)	3	40.5	58.8
Colgalt2 (GeneID 269132)	1	113	101
Colgalt2 (GeneID 269132)	2	111	125
Colgalt2 (GeneID 269132)	3	47.4	48.6
Nudt13 (GeneID 67725)	1	48.1	59.1
Nudt13 (GeneID 67725)	2	51.7	90.8
Nudt13 (GeneID 67725)	3	96	44
5730596B20Rik (GeneID 77580)	1	91.1	110
5730596B20Rik (GeneID 77580)	2	86.5	70.5
5730596B20Rik (GeneID 77580)	3	93.8	84.1
Cdx1 (GeneID 12590)	1	98.8	97.8
Cdx1 (GeneID 12590)	2	122 (active)	103
Cdx1 (GeneID 12590)	3	105	86.1
Snrnp70 (GeneID 20637)	1	84.2	91.8
Snrnp70 (GeneID 20637)	2	68.8	82.7
Snrnp70 (GeneID 20637)	3	61.5	63.4
